Reference: PubChem BioAssay AID1259405 (NCATS, 2018)

Test: 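Knock-downs that lift recombinant protein yield in hamster ovary cells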 (primary screen)
System: Chinese hamster CHO-K1 ovary cells with stable secreted eGFP expression
Knock-down reagent: single siRNA against mouse genes, 0.8 pmol siRNA per well (2 µl of 400 nM stock)
Duration: 3 days
Measurement: 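Per-well intracellular GFP measured by laser scanning cytometry, plus viability from ATP luminescence, each relative to plate median of non-targeting control wells, in %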
Reading the numbers: GFP, % of control: higher = more GFP per well, higher productivity; viability (ATP), % of control: higher = more viable cells (more ATP)
Active means: 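Called active when intracellular GFP, relative to negative control, is at or above 120%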
Here is one part, drawn at random, of about 50,000 deposited reagents. About 4,000 of them (8%) count as active. 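Mouse siRNA library applied to hamster cells; one well for each siRNA.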 A number with no mark means an inactive call. Reagents against one gene are numbered here.

| gene knocked down | reagent no. | GFP, % of control | viability (ATP), % of control |
| --- | --- | --- | --- |
| Foxn1 (forkhead box N1) | 1 | 85.7 | 88.7 |
| Foxn1 (forkhead box N1) | 2 | 75.2 | 66.5 |
| Macrod1 (mono-ADP ribosylhydrolase 1) | 1 | 60.9 | 74.4 |
| Macrod1 (mono-ADP ribosylhydrolase 1) | 2 | 52.7 | 76.9 |
| Macrod1 (mono-ADP ribosylhydrolase 1) | 3 | 89.6 | 88.2 |
| Clcf1 (cardiotrophin-like cytokine factor 1) | 1 | 69.8 | 62.8 |
| Clcf1 (cardiotrophin-like cytokine factor 1) | 2 | 58.8 | 66.3 |
| Clcf1 (cardiotrophin-like cytokine factor 1) | 3 | 79.2 | 45.1 |
| Ptgds (prostaglandin D2 synthase (brain)) | 1 | 102 | 64.6 |
| Ptgds (prostaglandin D2 synthase (brain)) | 2 | 162 (active) | 155 |
| Ptgds (prostaglandin D2 synthase (brain)) | 3 | 151 (active) | 93.9 |
| Ptgds (prostaglandin D2 synthase (brain)) | 4 | 76 | 102 |
| Ptgds (prostaglandin D2 synthase (brain)) | 5 | 73.7 | 74.8 |
| Ptgds (prostaglandin D2 synthase (brain)) | 6 | 101 | 76.8 |
| Selenok (selenoprotein K) | 1 | 93.2 | 60.5 |
| Selenok (selenoprotein K) | 2 | 111 | 80.3 |
| Selenok (selenoprotein K) | 3 | 58.4 | 67.3 |
| Papola (poly (A) polymerase alpha) | 1 | 96.9 | 93.9 |
| Papola (poly (A) polymerase alpha) | 2 | 97.4 | 88.2 |
| Arl3 (ADP-ribosylation factor-like 3) | 1 | 149 (active) | 81.2 |
| Arl3 (ADP-ribosylation factor-like 3) | 2 | 52.2 | 56.6 |
| Arl3 (ADP-ribosylation factor-like 3) | 3 | 85.9 | 83.3 |
| Or5ak24 (olfactory receptor family 5 subfamily AK member 24) | 1 | 31.2 | 15.8 |
| Or5ak24 (olfactory receptor family 5 subfamily AK member 24) | 2 | 66.9 | 74.1 |
| Or5ak24 (olfactory receptor family 5 subfamily AK member 24) | 3 | 82.9 | 105 |
| Matn1 (matrilin 1, cartilage matrix protein) | 1 | 89.6 | 122 |
| Matn1 (matrilin 1, cartilage matrix protein) | 2 | 58.4 | 70.2 |
| Fam3c (FAM3 metabolism regulating signaling molecule C) | 1 | 70.4 | 81.2 |
| Fam3c (FAM3 metabolism regulating signaling molecule C) | 2 | 59.8 | 55 |
| Fam3c (FAM3 metabolism regulating signaling molecule C) | 3 | 83 | 96.3 |
| Plekha1 (pleckstrin homology domain containing A1) | 1 | 29 | 30.4 |
| Plekha1 (pleckstrin homology domain containing A1) | 2 | 36.7 | 37.6 |
| Plekha1 (pleckstrin homology domain containing A1) | 3 | 53.3 | 49.1 |
| Klrb1a (killer cell lectin-like receptor subfamily B member 1A) | 1 | 34.9 | 29.1 |
| Klrb1a (killer cell lectin-like receptor subfamily B member 1A) | 2 | 92.6 | 78 |
| Klrb1a (killer cell lectin-like receptor subfamily B member 1A) | 3 | 61.7 | 64.2 |
| Septin11 (septin 11) | 1 | 71.9 | 78.9 |
| Septin11 (septin 11) | 2 | 57.3 | 74.8 |
| Aacs (acetoacetyl-CoA synthetase) | 1 | 46.3 | 93.8 |
| Aacs (acetoacetyl-CoA synthetase) | 2 | 104 | 97.6 |
| Aacs (acetoacetyl-CoA synthetase) | 3 | 113 | 111 |
| Itgb1bp1 (integrin beta 1 binding protein 1) | 1 | 73.5 | 63.2 |
| Itgb1bp1 (integrin beta 1 binding protein 1) | 2 | 85.5 | 79.5 |
| Itgb1bp1 (integrin beta 1 binding protein 1) | 3 | 58.1 | 69.6 |
| 6820408C15Rik (RIKEN cDNA 6820408C15 gene) | 1 | 29.5 | 27.7 |
| 6820408C15Rik (RIKEN cDNA 6820408C15 gene) | 2 | 73.1 | 84.4 |
| 6820408C15Rik (RIKEN cDNA 6820408C15 gene) | 3 | 105 | 130 |
| Ackr5 (atypical chemokine receptor 5) | 1 | 74.9 | 90.8 |
| Ackr5 (atypical chemokine receptor 5) | 2 | 76.8 | 90.3 |
| Ackr5 (atypical chemokine receptor 5) | 3 | 58.2 | 63.8 |
| Piezo2 (piezo-type mechanosensitive ion channel component 2) | 1 | 48.2 | 34.7 |
| Piezo2 (piezo-type mechanosensitive ion channel component 2) | 2 | 68.7 | 80.1 |
| Piezo2 (piezo-type mechanosensitive ion channel component 2) | 3 | 81.2 | 101 |
| Relt (RELT tumor necrosis factor receptor) | 1 | 68.9 | 62.7 |
| Relt (RELT tumor necrosis factor receptor) | 2 | 63.1 | 71.9 |
| Relt (RELT tumor necrosis factor receptor) | 3 | 75.8 | 61.4 |
| Il18 (interleukin 18) | 1 | 74.1 | 50.9 |
| Il18 (interleukin 18) | 2 | 62.1 | 55.8 |
| Il18 (interleukin 18) | 3 | 79.2 | 73.2 |
| Myof (myoferlin) | 1 | 34.7 | 28.8 |
| Myof (myoferlin) | 2 | 9.41 | 11.5 |
| Myof (myoferlin) | 3 | 79.1 | 51.1 |
| Samhd1 (SAM domain and HD domain, 1) | 1 | 68.6 | 107 |
| Samhd1 (SAM domain and HD domain, 1) | 2 | 74.4 | 81.3 |
| Samhd1 (SAM domain and HD domain, 1) | 3 | 76.9 | 77.1 |
| Stk32c (serine/threonine kinase 32C) | 1 | 75.7 | 65.7 |
| Stk32c (serine/threonine kinase 32C) | 2 | 92.1 | 50.6 |
| Stk32c (serine/threonine kinase 32C) | 3 | 84.4 | 62.6 |
| Cdc37l1 (cell division cycle 37-like 1) | 1 | 149 (active) | 76.7 |
| Cdc37l1 (cell division cycle 37-like 1) | 2 | 26 | 22.4 |
| Cdc37l1 (cell division cycle 37-like 1) | 3 | 57.6 | 62 |
| Bmp2 (bone morphogenetic protein 2) | 1 | 82 | 72.2 |
| Bmp2 (bone morphogenetic protein 2) | 2 | 49.6 | 33.1 |
| Bmp2 (bone morphogenetic protein 2) | 3 | 73.9 | 58.6 |
| Dock7 (dedicator of cytokinesis 7) | 1 | 82.4 | 50.9 |
| Dock7 (dedicator of cytokinesis 7) | 2 | 76.3 | 86.7 |
| Dock7 (dedicator of cytokinesis 7) | 3 | 66.5 | 59.9 |
| Rhag (Rh associated glycoprotein) | 1 | 89.7 | 97.4 |
| Rhag (Rh associated glycoprotein) | 2 | 60.3 | 79.7 |
| Rhag (Rh associated glycoprotein) | 3 | 86.1 | 94.1 |
| Cdk5r1 (cyclin dependent kinase 5, regulatory subunit 1) | 1 | 66.7 | 75.1 |
| Cdk5r1 (cyclin dependent kinase 5, regulatory subunit 1) | 2 | 88.7 | 122 |
| Arhgef10l (Rho guanine nucleotide exchange factor 10-like) | 1 | 82.9 | 82.8 |
| Arhgef10l (Rho guanine nucleotide exchange factor 10-like) | 2 | 56.2 | 39.7 |
| Arhgef10l (Rho guanine nucleotide exchange factor 10-like) | 3 | 82 | 75.5 |
| Ier5 (immediate early response 5) | 1 | 55.4 | 56.6 |
| Ier5 (immediate early response 5) | 2 | 90.6 | 65.3 |
| Ier5 (immediate early response 5) | 3 | 71.4 | 66.6 |
| Or51r1 (olfactory receptor family 51 subfamily R member 1) | 1 | 101 | 85.8 |
| Or51r1 (olfactory receptor family 51 subfamily R member 1) | 2 | 33.2 | 58 |
| Or51r1 (olfactory receptor family 51 subfamily R member 1) | 3 | 181 (active) | 47.3 |
| Cbx7 (chromobox 7) | 1 | 68.8 | 76.5 |
| Cbx7 (chromobox 7) | 2 | 84.3 | 74.9 |
| Cbx7 (chromobox 7) | 3 | 70.2 | 84.8 |
| Azi2 (5-azacytidine induced gene 2) | 1 | 82.3 | 75.8 |
| Azi2 (5-azacytidine induced gene 2) | 2 | 68 | 70 |
| Azi2 (5-azacytidine induced gene 2) | 3 | 76.8 | 39.5 |
| Tmem127 (transmembrane protein 127) | 1 | 95.5 | 87.8 |
| Tmem127 (transmembrane protein 127) | 2 | 95.7 | 71.6 |
| Tmem127 (transmembrane protein 127) | 3 | 111 | 84.5 |
| Kcne2 | 1 | 81.5 | 78.5 |
| Kcne2 | 2 | 50 | 66.1 |
| Kcne2 | 3 | 99.7 | 92.3 |
| C1qbp (complement component 1, q subcomponent binding protein) | 1 | 106 | 90.9 |
| C1qbp (complement component 1, q subcomponent binding protein) | 2 | 53.2 | 65.5 |
| Ybey (ybeY metallopeptidase) | 1 | 28.8 | 41.5 |
| Ybey (ybeY metallopeptidase) | 2 | 65.9 | 73 |
| Ybey (ybeY metallopeptidase) | 3 | 73.9 | 83.1 |
